Measurements: paper doi:10.1101/2022.09.01.506260
These are yes or no findings as the source states them, for the method shown. In cells and extracts the contact can be indirect. Some results given as binding are weak or reduced against the parent protein; the word gives no strength. Where a sequence is shown, tags or fusion partners need not be part of it.

Key:
Assay in all cases: co-IP
[1] = molecular target: T1, HA-tagged PEAK3^FL WT (human), Q6ZS72; conditions: remark: other sources report otherwise
T1 chain: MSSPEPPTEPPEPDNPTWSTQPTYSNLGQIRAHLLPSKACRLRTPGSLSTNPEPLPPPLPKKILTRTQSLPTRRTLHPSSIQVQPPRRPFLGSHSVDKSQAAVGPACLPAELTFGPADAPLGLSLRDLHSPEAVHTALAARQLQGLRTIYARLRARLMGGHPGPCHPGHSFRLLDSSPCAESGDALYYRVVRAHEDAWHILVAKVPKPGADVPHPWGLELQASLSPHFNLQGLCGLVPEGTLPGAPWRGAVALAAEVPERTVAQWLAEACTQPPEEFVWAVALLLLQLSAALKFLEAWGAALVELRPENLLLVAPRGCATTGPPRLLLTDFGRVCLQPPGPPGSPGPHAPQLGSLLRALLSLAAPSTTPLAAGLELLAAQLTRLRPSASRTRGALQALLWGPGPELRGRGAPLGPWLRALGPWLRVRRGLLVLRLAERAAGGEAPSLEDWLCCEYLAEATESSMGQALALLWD

[2] = molecular target: T2, HA-tagged PEAK3^FL-C453E dimerization mutant (human) (UniProt Q6ZS72)
T2 sequence: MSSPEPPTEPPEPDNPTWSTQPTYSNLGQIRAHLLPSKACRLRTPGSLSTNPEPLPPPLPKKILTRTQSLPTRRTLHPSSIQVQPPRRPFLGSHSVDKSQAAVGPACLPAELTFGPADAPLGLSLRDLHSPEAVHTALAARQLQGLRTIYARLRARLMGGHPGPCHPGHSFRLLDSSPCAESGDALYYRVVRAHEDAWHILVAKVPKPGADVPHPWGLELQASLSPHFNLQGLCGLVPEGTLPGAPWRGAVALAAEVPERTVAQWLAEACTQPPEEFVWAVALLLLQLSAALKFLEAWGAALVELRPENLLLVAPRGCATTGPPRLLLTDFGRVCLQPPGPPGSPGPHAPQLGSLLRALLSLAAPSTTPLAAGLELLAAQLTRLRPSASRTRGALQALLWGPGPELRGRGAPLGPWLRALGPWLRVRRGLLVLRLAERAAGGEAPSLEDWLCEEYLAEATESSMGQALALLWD

[3] = molecular target: T3, HA-tagged PEAK3^FL-A436E dimerization mutant (human) (UniProt Q6ZS72)
T3 sequence: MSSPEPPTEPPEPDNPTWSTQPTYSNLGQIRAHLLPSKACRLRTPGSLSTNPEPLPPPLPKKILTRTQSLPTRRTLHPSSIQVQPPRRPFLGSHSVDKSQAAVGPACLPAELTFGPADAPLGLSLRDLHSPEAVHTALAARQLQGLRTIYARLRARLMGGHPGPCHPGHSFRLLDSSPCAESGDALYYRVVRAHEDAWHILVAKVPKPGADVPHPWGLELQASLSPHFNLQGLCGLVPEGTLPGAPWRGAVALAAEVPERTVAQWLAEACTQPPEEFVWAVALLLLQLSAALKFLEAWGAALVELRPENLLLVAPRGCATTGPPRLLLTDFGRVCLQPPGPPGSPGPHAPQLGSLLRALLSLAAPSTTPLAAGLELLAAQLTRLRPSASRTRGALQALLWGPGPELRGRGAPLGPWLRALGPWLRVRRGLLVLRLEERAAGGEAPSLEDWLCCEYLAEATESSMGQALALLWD

[4] = molecular target: T4, HA-tagged PEAK3^FL-L146E dimerization mutant (human) (UniProt Q6ZS72)
T4 sequence: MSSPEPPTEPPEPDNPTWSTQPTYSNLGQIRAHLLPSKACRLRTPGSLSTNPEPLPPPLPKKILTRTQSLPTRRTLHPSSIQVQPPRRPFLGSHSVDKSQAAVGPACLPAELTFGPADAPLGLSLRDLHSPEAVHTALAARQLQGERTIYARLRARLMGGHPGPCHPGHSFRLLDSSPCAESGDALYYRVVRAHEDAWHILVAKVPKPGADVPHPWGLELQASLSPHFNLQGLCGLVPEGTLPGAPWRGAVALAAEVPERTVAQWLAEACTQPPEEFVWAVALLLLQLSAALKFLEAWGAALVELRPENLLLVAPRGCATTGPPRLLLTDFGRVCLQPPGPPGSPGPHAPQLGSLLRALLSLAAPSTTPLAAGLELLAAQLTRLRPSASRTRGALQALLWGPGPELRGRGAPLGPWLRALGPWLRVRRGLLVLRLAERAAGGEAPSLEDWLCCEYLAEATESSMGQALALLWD

B1: endogenous CrkII (HEK293), P46108-1 1-304 (protein)
chain: MAGNFDSEERSSWYWGRLSRQEAVALLQGQRHGVFLVRDSSTSPGDYVLSVSENSRVSHYIINSSGPRPPVPPSPAQPPPGVSPSRLRIGDQEFDSLPALLEFYKIHYLDTTTLIEPVSRSRQGSGVILRQEEAEYVRALFDFNGNDEEDLPFKKGDILRIRDKPEEQWWNAEDSEGKRGMIPVPYVEKYRPASASVSALIGGNQEGSHPQPLGGPEPGPYAQPSVNTPLPNLQNGPIYARVIQKRVPNAYDKTALALEVGELVKVTKINVSGQWEGECNGKRGHFPFTHVRLLDQQNPDEDFS
binding [1]: binds

B2: Flag-tagged PEAK3^FL WT (protein, UniProt Q6ZS72 1-473)
chain: MSSPEPPTEPPEPDNPTWSTQPTYSNLGQIRAHLLPSKACRLRTPGSLSTNPEPLPPPLPKKILTRTQSLPTRRTLHPSSIQVQPPRRPFLGSHSVDKSQAAVGPACLPAELTFGPADAPLGLSLRDLHSPEAVHTALAARQLQGLRTIYARLRARLMGGHPGPCHPGHSFRLLDSSPCAESGDALYYRVVRAHEDAWHILVAKVPKPGADVPHPWGLELQASLSPHFNLQGLCGLVPEGTLPGAPWRGAVALAAEVPERTVAQWLAEACTQPPEEFVWAVALLLLQLSAALKFLEAWGAALVELRPENLLLVAPRGCATTGPPRLLLTDFGRVCLQPPGPPGSPGPHAPQLGSLLRALLSLAAPSTTPLAAGLELLAAQLTRLRPSASRTRGALQALLWGPGPELRGRGAPLGPWLRALGPWLRVRRGLLVLRLAERAAGGEAPSLEDWLCCEYLAEATESSMGQALALLWD
binding [2]: no binding | binding [3]: no binding | binding [4]: no binding
